Reference: patent US5644025A (Gruppo Lepetit SPA, priority 1990, dated 1997)

Assay: general procedure: peptide synthesis; N-hydroxysuccinimide esters; N-hydroxybenzotriazole hydrate
Settings: di-trifluoroacetate

Substance | crude HPLC purity (coupling step) | crude HPLC purity (late stage modification step)
(L-phenylalanyl)^3 -[N^α,N^ε -di-(t-BOC)-D-lysyl]^15 -ATDH methyl ester | titre about 45% | –
formula (Ic): R=Ro =amino, R1 =R2 =R5 =hydrogen, R3 =R4 =chloro, R6 =hydroxy, Y=carboxy | – | about 60%
